Laboratory results taken from PMC7136618, “Defective nucleotide-dependent assembly and membrane fusion in Mfn2 CMT2A variants improved by Bax” (Life Science Alliance, 2020).
Residue numbers refer to the chain shown, from its start. Results are given in words; binding and its absence hold for the method and conditions named. Binding seen in cells or lysates may run through a third protein. Some results given as binding are weak or reduced against the parent protein; the word gives no strength. Where a sequence is shown, tags or fusion partners need not be part of it.

Key:
Assay in all cases: co-IP; two populations of isolated mitochondria (Mfn1 + Mfn2-FLAG; Mfn1-eGFP + Mfn2), 50 μg each, mixed, incubated at 37°C for 30 min with BeF3 with or without 2 mM GDP in fusion buffer; lysed in 1.5% DDM; anti-FLAG (DYKDDDDK) magnetic beads; blots with α-Mfn1 and α-Mfn2; endogenous Mfn1 is in cis, Mfn1-eGFP and endogenous Mfn2 are in trans to Mfn2-FLAG
[1] = target: T1, Mfn2^A383V with a C-terminal 3×FLAG tag (UniProt Q80U63)
T1 sequence: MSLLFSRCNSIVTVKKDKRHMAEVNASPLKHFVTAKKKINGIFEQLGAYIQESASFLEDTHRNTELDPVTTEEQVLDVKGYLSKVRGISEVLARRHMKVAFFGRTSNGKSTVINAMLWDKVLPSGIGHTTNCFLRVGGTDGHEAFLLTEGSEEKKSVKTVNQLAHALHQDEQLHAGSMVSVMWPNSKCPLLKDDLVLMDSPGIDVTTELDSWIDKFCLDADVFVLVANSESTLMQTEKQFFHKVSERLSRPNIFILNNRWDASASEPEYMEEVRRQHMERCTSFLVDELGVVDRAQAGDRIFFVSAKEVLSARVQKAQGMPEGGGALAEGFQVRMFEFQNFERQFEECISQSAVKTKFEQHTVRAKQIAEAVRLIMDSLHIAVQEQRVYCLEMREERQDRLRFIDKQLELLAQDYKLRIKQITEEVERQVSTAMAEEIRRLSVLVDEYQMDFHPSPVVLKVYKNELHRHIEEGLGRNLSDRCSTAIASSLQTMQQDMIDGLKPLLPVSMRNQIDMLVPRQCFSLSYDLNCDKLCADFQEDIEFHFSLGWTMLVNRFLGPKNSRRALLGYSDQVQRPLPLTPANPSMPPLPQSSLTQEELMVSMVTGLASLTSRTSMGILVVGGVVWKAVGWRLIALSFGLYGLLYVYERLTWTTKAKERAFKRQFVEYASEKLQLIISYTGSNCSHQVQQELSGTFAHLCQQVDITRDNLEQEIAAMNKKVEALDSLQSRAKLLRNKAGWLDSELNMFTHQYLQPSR

[2] = target: T2, Mfn2^WT with a C-terminal 3×FLAG tag (UniProt Q80U63)
T2 sequence: T1 sequence with V383A

[3] = target: T3, Mfn2^S378P with a C-terminal 3×FLAG tag (UniProt Q80U63)
T3 sequence: T1 sequence with S378P, V383A

Measured: binding

B1: endogenous Mfn1 (protein, UniProt Q811U4 1-741)
chain: MAETVSPLKHFVLAKKAITAIFGQLLEFVTEGSHFVEATYRNPELDRIASEDDLVEIQGYRNKLAVIGEVLSRRHMKVAFFGRTSSGKSSVINAMLWDKVLPSGIGHTTNCFLSVEGTDGDKAYLMTEGSDEKKSVKTVNQLAHALHMDKDLKAGCLVHVFWPKAKCALLRDDLVLVDSPGTDVTTELDIWIDKFCLDADVFVLVANSESTLMNTEKHFFHKVNERLSKPNIFILNNRWDASASEPEYMEDVRRQHMERCLHFLVEELKVVSPSEARNRIFFVSAKEVLNSRKHKAQGMPEGGGALAEGFQARLQEFQNFEQTFEECISQSAVKTKFEQHTIRAKQILDTVKNILDSVNVAAAEKRVYSMEEREDQIDRLDFIRNQMNLLTLDVKKKIKEVTEEVANKVSCAMTDEICRLSVLVDEFCSEFHPTPSVLKVYKSELNKHIEDGMGRNLADRCTNEVNASILQSQQEIIENLKPLLPAGIQNKLHTLIPCKKFDLSYDLNCHKLCSDFQEDIVFRFSLGWSSLVHRFLGSTNAQRVLLGLSEPIFQVPRSLASTPTAPSNPAAPDNAAQEELMITLITGLASLTSRTSMGIIVVGGVIWKTVGWKLISVTLSMYGALYLYERLTWTTRAKERAFKQQFVNYATEKLQMIVSFTSANCSHQVQQEMATTFARLCQQVDVTQKHLEEEIARLSKEIDQLEKIQNNSKLLRNKAVQLESELENFSKQFLHPSSGES
binds: all assays above

B2: Mfn1^WT-eGFP (protein, UniProt Q811U4 1-741)
chain: B1 chain
binds: all assays above
